No constants are given. Whether binding was seen depends on the method and setting. Some results given as binding are weak or reduced against the parent protein; the word gives no strength.
Molecular target: H3N2 Hong Kong/68 hemagglutinin (Influenza A virus H3N2 Hong Kong/68) (UniProt P03437)
Assay: IgG binding to hemagglutinin antigen, Table 2 column 'Binding'

B1: 1286-A11 antibody (antibody, V domains shown)
VH: QVQLQQSGPRLVKPSQTLSLTCAISGDSVSGDSGTWNWIRQSPSRGLEWLGRTYYRSKWYNDYAESVKSRIVIKADTSKNEFSLQLNSVTPEDTAIYYCARAGVKIFGLIVGALDNWGRGTLVTVSS
VL: EIVMTQSPGTLSLSPGERATLSCRASQSVSSSYLAWYQQKPGQAPRLLIYGASTRATGVPDRFHGGGSGTDFTLTISRLEPEDFAVYYCQQYDTSSGLTFGGGTKVEIK
binding: binds
